From article PMC4010968, “Nap1 stimulates homologous recombination by RAD51 and RAD54 in higher-ordered chromatin containing histone H1” (Scientific Reports, 2014)
No constants are given. Whether binding was seen depends on the method and setting. In cells and extracts the contact can be indirect. Some entries that bind do so weakly or less than the wild type. Sequences can lack the tags named with a protein.

Biological target: T1, FLAG-Nap1 (human) (UniProt P55209)
T1 sequence: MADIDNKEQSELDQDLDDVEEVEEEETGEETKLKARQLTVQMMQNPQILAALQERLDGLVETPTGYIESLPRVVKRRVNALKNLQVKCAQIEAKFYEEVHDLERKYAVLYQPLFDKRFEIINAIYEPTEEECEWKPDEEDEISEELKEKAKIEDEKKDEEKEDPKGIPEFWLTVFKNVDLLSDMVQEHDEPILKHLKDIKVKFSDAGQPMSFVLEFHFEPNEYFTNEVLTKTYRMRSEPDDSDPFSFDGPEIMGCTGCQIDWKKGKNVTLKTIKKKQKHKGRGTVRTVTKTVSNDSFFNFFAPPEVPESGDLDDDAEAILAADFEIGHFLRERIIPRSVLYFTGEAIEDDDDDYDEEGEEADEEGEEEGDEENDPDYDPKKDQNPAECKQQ
Experiment: co-IP; FLAG-Nap1 captured with an anti-FLAG antibody from HEK293T cells expressing FLAG-Nap1 and Myc-RAD54, with or without cisplatin; Myc-RAD54 and endogenous RAD51 detected by anti-Myc and anti-RAD51 blots (the paper calls it a pull-down assay)

B1: Myc-RAD54 (protein, UniProt Q92698 1-747)
chain: MRRSLAPSQLAKRKPEGRSCDDEDWQPGLVTPRKRKSSSETQIQECFLSPFRKPLSQLTNQPPCLDSSQHEAFIRSILSKPFKVPIPNYQGPLGSRALGLKRAGVRRALHDPLEKDALVLYEPPPLSAHDQLKLDKEKLPVHVVVDPILSKVLRPHQREGVKFLWECVTSRRIPGSHGCIMADEMGLGKTLQCITLMWTLLRQSPECKPEIDKAVVVSPSSLVKNWYNEVGKWLGGRIQPLAIDGGSKDEIDQKLEGFMNQRGARVSSPILIISYETFRLHVGVLQKGSVGLVICDEGHRLKNSENQTYQALDSLNTSRRVLISGTPIQNDLLEYFSLVHFVNSGILGTAHEFKKHFELPILKGRDAAASEADRQLGEERLRELTSIVNRCLIRRTSDILSKYLPVKIEQVVCCRLTPLQTELYKRFLRQAKPAEELLEGKMSVSSLSSITSLKKLCNHPALIYDKCVEEEDGFVGALDLFPPGYSSKALEPQLSGKMLVLDYILAVTRSRSSDKVVLVSNYTQTLDLFEKLCRARRYLYVRLDGTMSIKKRAKVVERFNSPSSPDFVFMLSSKAGGCGLNLIGANRLVMFDPDWNPANDEQAMARVWRDGQKKTCYIYRLLSAGTIEEKIFQRQSHKKALSSCVVDEEQDVERHFSLGELKELFILDEASLSDTHDRLHCRRCVNSRQIRPPPDGSDCTSDLAGWNHCTDKWGLRDEVLQAAWDAASTAITFVFHQRSHEEQRGLR
Question: With B1 as the binder, how does the binding read?
Answer: The binding was “binds”.
